This is an account of results in paper PMC13650161.

By UniProt entry, the sequences of proteins in these tests, tags left out. Where a name states a change or a piece, a line headed by the entry shows the natural chain unless it says otherwise.
UniProt Q5LJZ2: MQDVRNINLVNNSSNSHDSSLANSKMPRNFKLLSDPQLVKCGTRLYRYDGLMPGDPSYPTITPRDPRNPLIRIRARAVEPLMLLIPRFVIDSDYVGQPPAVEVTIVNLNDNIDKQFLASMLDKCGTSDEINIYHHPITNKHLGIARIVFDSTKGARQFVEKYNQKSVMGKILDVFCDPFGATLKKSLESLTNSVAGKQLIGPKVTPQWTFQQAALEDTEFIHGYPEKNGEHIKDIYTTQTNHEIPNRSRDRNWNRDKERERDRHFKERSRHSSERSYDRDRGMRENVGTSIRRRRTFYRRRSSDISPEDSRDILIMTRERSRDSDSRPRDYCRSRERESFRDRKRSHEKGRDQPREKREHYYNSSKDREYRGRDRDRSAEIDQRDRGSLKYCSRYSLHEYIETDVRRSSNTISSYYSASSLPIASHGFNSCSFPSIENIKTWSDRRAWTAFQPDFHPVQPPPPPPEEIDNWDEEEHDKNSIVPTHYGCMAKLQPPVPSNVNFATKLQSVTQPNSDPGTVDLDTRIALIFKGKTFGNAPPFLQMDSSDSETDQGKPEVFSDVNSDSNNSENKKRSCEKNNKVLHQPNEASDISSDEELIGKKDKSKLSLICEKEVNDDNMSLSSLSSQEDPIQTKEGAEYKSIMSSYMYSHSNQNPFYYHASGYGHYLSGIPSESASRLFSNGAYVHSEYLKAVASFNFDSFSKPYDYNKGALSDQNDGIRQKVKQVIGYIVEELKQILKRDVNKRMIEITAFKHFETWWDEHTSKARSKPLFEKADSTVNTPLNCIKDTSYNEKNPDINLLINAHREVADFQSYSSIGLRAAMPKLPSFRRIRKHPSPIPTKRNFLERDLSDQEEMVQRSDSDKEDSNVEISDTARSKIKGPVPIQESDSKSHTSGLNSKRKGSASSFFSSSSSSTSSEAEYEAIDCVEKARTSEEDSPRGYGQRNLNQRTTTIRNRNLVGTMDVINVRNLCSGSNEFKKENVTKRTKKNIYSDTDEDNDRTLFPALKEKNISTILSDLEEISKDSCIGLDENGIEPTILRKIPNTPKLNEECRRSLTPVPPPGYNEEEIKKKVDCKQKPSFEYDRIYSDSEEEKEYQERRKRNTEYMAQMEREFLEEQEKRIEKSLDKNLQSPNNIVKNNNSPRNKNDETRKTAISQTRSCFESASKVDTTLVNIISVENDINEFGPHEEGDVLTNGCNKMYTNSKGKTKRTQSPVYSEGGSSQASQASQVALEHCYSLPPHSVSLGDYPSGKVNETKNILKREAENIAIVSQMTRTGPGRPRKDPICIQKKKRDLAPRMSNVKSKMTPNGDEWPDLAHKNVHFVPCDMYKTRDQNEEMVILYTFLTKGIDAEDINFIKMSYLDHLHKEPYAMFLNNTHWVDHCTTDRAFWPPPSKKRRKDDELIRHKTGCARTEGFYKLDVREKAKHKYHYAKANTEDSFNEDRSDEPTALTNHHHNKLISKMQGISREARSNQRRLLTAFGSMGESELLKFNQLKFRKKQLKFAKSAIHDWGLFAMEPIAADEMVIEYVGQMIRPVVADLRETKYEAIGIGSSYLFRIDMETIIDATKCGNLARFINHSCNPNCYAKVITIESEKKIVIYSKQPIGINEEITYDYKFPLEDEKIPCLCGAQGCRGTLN

No constants are given. Whether binding was seen depends on the method and setting. In cells and extracts the contact can be indirect. Some binding calls cover weakened binding; strength is not graded here.

The target of assay [1] is GFP-Set1^E1613K (Drosophila melanogaster) (UniProt Q5LJZ2). The experiment in a line: co-IP; GFP-IP with anti-GFP antibody from ovaries without crosslinking treatment; immunoblot.
The target of assay [2] is GFP-Set1^WT (Drosophila melanogaster) (UniProt Q5LJZ2). The description is as above.
Assay [3] deals with GFP-Set1^E1613K (Drosophila melanogaster) (UniProt Q5LJZ2). The experiment in a line: co-IP; GFP-IP with anti-GFP magnetic beads from ovary lysate after crosslinking with 0.1% paraformaldehyde for 10 min at RT; 20 mM Tris-HCl pH 7.5, 135 mM NaCl, 1.5 mM MgCl2, 10% glycerol, 0.2% Triton X-100; 1 h at 4 C; immunoblot.
Assay [4] concerns the target GFP-Set1^WT (Drosophila melanogaster) (UniProt Q5LJZ2). The description is as above.

B1: Piwi (protein, UniProt Q9VKM1 1-843)
chain: MADDQGRGRRRPLNEDDSSTSRGSGDGPRVKVFRGSSSGDPRADPRIEASRERRALEEAPRREGGPTERKPWGDQYDYLNTRPAELVSKKGTDGVPVMLQTNFFRLKTKPEWRIVHYHVEFEPSIENPRVRMGVLSNHANLLGSGYLFDGLQLFTTRKFEQEITVLSGKSKLDIEYKISIKFVGFISCAEPRFLQVLNLILRRSMKGLNLELVGRNLFDPRAKIEIREFKMELWPGYETSIRQHEKDILLGTEITHKVMRTETIYDIMRRCSHNPARHQDEVRVNVLDLIVLTDYNNRTYRINDVDFGQTPKSTFSCKGRDISFVEYYLTKYNIRIRDHNQPLLISKNRDKALKTNASELVVLIPELCRVTGLNAEMRSNFQLMRAMSSYTRMNPKQRTDRLRAFNHRLQNTPESVKVLRDWNMELDKNVTEVQGRIIGQQNIVFHNGKVPAGENADWQRHFRDQRMLTTPSDGLDRWAVIAPQRNSHELRTLLDSLYRAASGMGLRIRSPQEFIIYDDRTGTYVRAMDDCVRSDPKLILCLVPNDNAERYSSIKKRGYVDRAVPTQVVTLKTTKNRSLMSIATKIAIQLNCKLGYTPWMIELPLSGLMTIGFDIAKSTRDRKRAYGALIASMDLQQNSTYFSTVTECSAFDVLANTLWPMIAKALRQYQHEHRKLPSRIVFYRDGVSSGSLKQLFEFEVKDIIEKLKTEYARVQLSPPQLAYIVVTRSMNTRFFLNGQNPPPGTIVDDVITLPERYDFYLVSQQVRQGTVSPTSYNVLYSSMGLSPEKMQKLTYKMCHLYYNWSGTTRVPAVCQYAKKLATLVGTNLHSIPQNALEKKFYYL
B1: the binding entry in assay [1] is recorded as “no binding (condition: without crosslinking treatment)”; in assay [2], “no binding (condition: without crosslinking treatment)”; in assay [3], “binds weakly”; in assay [4] it was “binds weakly”.
